{"source": "patent US9458499B2", "about": "“Nucleic acid binding dyes and uses therefor” (PROMEGA CORPORATION, priority 2009, dated 2016)", "tested_on": "human gDNA, Chemokine (C-C motif) ligand 18 amplicon", "assay": "qPCR amplification reactions with dye: standard curve and total fluorescence analysis", "assay_type": "biochemical", "conditions": "for FM (maximum fluorescence): 100 ng target, cycle 45; for Bds=FM:Fi (brightness factor): FM at 45 cycles relative to Fi of NTC at cycle 1; for Fi (initial background fluorescence): NTC at cycle 1; for FB (background fluorescence factor): inverse of Bds, % of total double stranded fluorescence; for slope of qPCR standard curve / y-intercept of qPCR standard curve: normalized to ROX, 45 cycles", "note": "Where a name gives a salt, the structure may show the parent alone.", "data": [{"molecule": "CCCN(CCCN(C)C)C1=C/C(=C\\c2sc3cccc4c3[n+]2CCC4)c2ccccc2N1c1ccccc1", "note": "[PBI 3654, 1-((2-((3-(Dimethylamino)propyl)(propyl)amino)-1-phenylquinolin-4(1H)-ylidene)methyl)-7,8-dihydro-6H-thiazolo[5,4,3-ij]quinolin-9-ium]", "values": [{"measurement": "FM (maximum fluorescence)", "value": "1.05e6"}, {"measurement": "Bds=FM:Fi (brightness factor)", "value": 27.7}, {"measurement": "Fi (initial background fluorescence)", "value": "3.8e4"}, {"measurement": "FB (background fluorescence factor)", "value": 3.6, "unit": "%"}, {"measurement": "slope of qPCR standard curve", "value": 3.32}, {"measurement": "y-intercept of qPCR standard curve", "value": 28.34}]}, {"molecule": "CCCN(CCCN(C)C)c1cc(/C=C2\\Sc3cccc4c3N2CCC4)c2ccccc2[n+]1Cc1ccccc1", "note": "[PBI 3677, 1-benzyl-4-((5,6-dihydrothiazolo[5,4,3-ij]quinolin-2(4H)-ylidene)methyl)-2-((3-(dimethylamino)propyl)(propyl)amino)quinolinium trifluoroacetate]", "values": [{"measurement": "slope of qPCR standard curve", "value": "−3.35"}, {"measurement": "y-intercept of qPCR standard curve", "value": 26.89}]}, {"molecule": "CCCN(CCCN(C)C)c1cc(/C=C2/Sc3ccccc3N2C)c2ccccc2[n+]1-c1ccccc1", "note": "[SYBR Green 1, reference compound]", "values": [{"measurement": "FM (maximum fluorescence)", "value": "9.9e5"}, {"measurement": "Bds=FM:Fi (brightness factor)", "value": 12.7}, {"measurement": "Fi (initial background fluorescence)", "value": "7.8e4"}, {"measurement": "FB (background fluorescence factor)", "value": 7.9, "unit": "%"}]}]}
